Data: patent publication US20050170345A1, “Neuroglobin is up-regulated by and protects neurons from hypoxic-ischemic injury” (priority 2001, published 2005)
For at least one compound, name, drawing or mass did not settle the structure.

Tested on: Ngb
Assay: Ngb expression in cultured cortical neurons treated with hypoxia mimetics or other stressors (Western blot)
Format: cell-based, mouse
Settings: cultured cortical neurons treated 24 h, 300 μM CoCl2 (Co2+), 100 μM Dfx, 0.1 μM staurosporine, 500 μM SNP

CC(=O)N(O)CCCCCNC(=O)CCC(=O)N(O)CCCCCNC(=O)CCC(=O)N(O)CCCCCN [deferoxamine]
Ngb expression: increased
Ngb expression (listed as Dfx): increased Ngb expression
